Source: ChEMBL document CHEMBL3988442, “University of Dundee, Small-Polar-MMV Screening Library” (2021).

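Viability assay of Plasmodium falciparum sporozoites; the read-out is not stated. The concentration is filed as 10 mM, unlikely as a test dose, so the dose is not known. Higher reads as lower viability (inferred: compounds with an IC50 in retests scored well above the rest). Strong results were mostly tested again. Size under these conditions: about 34,000 compounds, about 280 of them at 50% or above in at least one test.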

Results are given as percent effect.
How 0% and 100% were set is not recorded. Most values in the screen are low, and negative values occur.
This is an unselected part of the compounds tested.
Two or more numbers in one place are separate tests of the same structure; such repeats can differ widely.

Compound,effect
N#Cc1csc(CNCCOc2ccc(Cl)cn2)c1,6.14
CC(=O)N1CCc2ncc(CNC(=O)C3CCC3)n2CC1,-7.632
CNC(=O)C1CN(c2ccnc(C)n2)CCN1Cc1ccccc1 (centres undefined),0.8687
CN1CCN(c2ccc(F)cc2NC(=O)NCCn2ccnc2)CC1,-14.45
O=C(COCc1ccccc1Cl)N1CCCC(n2ccnc2)C1 (centres undefined),6.144
CC(=O)N1CCC(c2ncc3c(n2)CCN(C(=O)c2ccccc2)C3)C1 (centres undefined),3.09
O=C(NCc1ccco1)c1cc[n+]([O-])cc1,-11.89
Cn1cc(CNC2CCc3c(ccc(=O)n3C)C2)cn1 (centres undefined),-2.869
O=C(O)C(F)(F)F.[H][C@@]12CCN(Cc3nccs3)C[C@@]1([H])O[C@@H](C(=O)NCCOC)C2,5.892
O=C(NCN1CCc2ccccc2C1)c1cnccn1,-11.07
CSCC(=O)N(C)Cc1ccccc1,-22.56
O=C(NCc1ccc(-n2cncn2)nc1)c1ccoc1,14.56
CC(NCc1ccco1)c1nnc2n1CCCC2 (centres undefined),-20.71
COc1ccc(CN2CCC3(CC2)CCN(CC(=O)N(C)C)C3=O)cc1.O=C(O)C(F)(F)F,2.189
Cc1nn(C)c(C)c1NC(=O)CN1CCOC(Cn2cccn2)C1 (centres undefined),-7.135
Cc1ncc2c(n1)CN(Cc1cccc3c1OCCO3)CC2,-12.81
O=C(O)C(F)(F)F.O=C(O)C(F)(F)F.[H][C@@]12CN(Cc3csc(C)n3)CCO[C@]1([H])CN(Cc1cccs1)C2,-3.65
O=C(CN1CCOC(Cn2cccn2)C1)NCc1cccs1 (centres undefined),-11.95
O=C1CCNc2ccc(F)cc2CN1Cc1ccccc1,-40.6
CNC(=O)Cn1nnc(-c2cc3ccccc3o2)n1,-20.53
Cc1ccc(-c2cc(CNC(=O)N3CCC(O)CC3)on2)cc1,15.01 and 14.64 and 22.19
Cc1ccc(NC(=O)C2CSCN2C(=O)c2cnccn2)c(C)c1 (centres undefined),0.6441
Cn1nc(C(=O)N2CCCCC2c2nc3cc(F)ccc3[nH]2)ccc1=O (centres undefined),10.75
[H][C@@]12COC[C@]1(c1nnc(C3CC3)o1)CN(C(=O)CS(C)(=O)=O)C2,15.69
CN(CC(=O)Nc1ccncc1)CC1CCCN1c1cccnn1 (centres undefined),-12.84
[H][C@]12CCCN(S(=O)(=O)c3ccc(Cl)s3)[C@@]1([H])CN(C(C)=O)C2,12.66
COc1c(CNCc2ccc(N(C)C)nc2)c(C(C)C)nn1C,10.88
CCCN(Cc1ccccc1O)S(=O)(=O)N(C)CC,9.123
Cc1cc(C)c(CNC(=O)NC(C)c2ccc3c(c2)CCC3)c(=O)[nH]1 (centres undefined),13.67 and -14.16 and -5.093
CS(=O)(=O)NC(=O)c1ccn(-c2cccc(Br)c2)n1,-9.602
Cl.Cn1nc(C2CCCN(Cc3cccs3)C2)c2nccnc21 (centres undefined),4.972
O=C(O)C(F)(F)F.O=C(O)C(F)(F)F.c1ccc(CN2CCc3ncnc(-c4cccnc4)c3CC2)nc1,12.79
COc1ccc(NC(=O)C2CC(=O)N(C)C2)cn1 (centres undefined),-3.818
CC1CCCCN1C(=O)c1ccc(Br)s1 (centres undefined),-1.959
Cc1ncc(CNC(=O)N(CCCO)C2CCc3ccccc32)s1 (centres undefined),4.007
Cc1cnn(C2CCCN(C(=O)c3ccc(N4CCCC4)nc3)C2)c1 (centres undefined),-1.757
CN(Cc1cnn(-c2ccccc2)n1)C1CCCN(c2cccnn2)C1 (centres undefined),-0.7727
CC(=O)N1CC(=O)N(c2cnn(C)c2)CC12CCN(Cc1ccoc1)C2 (centres undefined),-7.892
CC1CN(Cc2ccc(C#N)cc2F)CCN1Cc1nccn1C (centres undefined),-14.75
O=C(O)C(F)(F)F.O=C(O)C(F)(F)F.[H][C@@]12CN(Cc3cccc(C)n3)C[C@]1([H])OCCN2CCOC,-11.65
O=C(NCCN1CCCCC1)c1ccn(-c2ccc(F)cc2)n1,0.9659
Cc1csc2cc(C(=O)NC3CC3)cnc12,-0.9036
Cc1cc(C(=O)Nc2nc3c(s2)CN(S(=O)(=O)C2CC2)CC3)c(C)o1,-26.43 and 4.592
Cc1cc(C2CCCN(CCc3ccccn3)C2)n[nH]1 (centres undefined),0.4112
CC(Cc1c(F)cccc1F)NC(=O)Nc1cnn(CC(N)=O)c1 (centres undefined),-5.012
Cc1cc2n(n1)[C@@H](C(F)(F)F)C[C@@H](C1CCN(C(=O)C(C)C)CC1)N2,15.45
CCCSc1nc(O)c(CC)c(=O)n1-c1ccccc1,-1.115
CC(C(=O)N1CCCCC1)n1nc(-c2cccs2)cc(N)c1=O (centres undefined),-29.95
Cc1cnn(C2CCCN(C(=O)COc3ccc(C(N)=O)cc3)C2)c1 (centres undefined),-4.236
CS(=O)(=O)c1ccc(CNC(=O)N2CCC(CO)CC2)cc1,2.859
O=C(O)C(F)(F)F.[H][C@]12CN(C(=O)c3cncc(C)c3)C[C@@]1([H])OCCN(S(C)(=O)=O)C2,7.972
[H][C@@]12C[C@@H](OC)C[C@]1([H])CN(C(=O)c1nn(CCC)cc1Cl)C2,6.604
O=C(NCCc1ccncc1)C1CCN(Cc2ccco2)CC1,-1.288
CC(C)(C)CCN1CCCC(Cn2cc(CCO)nn2)C1 (centres undefined),-0.9923
CC(C)(C)N1CCCN(C(=O)c2csc(S(N)(=O)=O)c2)CC1,-0.692
[H][C@]12CCN(C(=O)CCO)C[C@@]1([H])OCCN(C(=O)c1ccco1)C2,2.32
Cn1ncc2c1C(COCC1CC1)CN(C(=O)c1ccoc1)C2 (centres undefined),10.23
CN(CCNC(=O)Nc1cnn(C)c1)Cc1ccc(F)cc1,5.372
OC(CN1CCOCC1)c1ccc(OC(F)(F)F)cc1 (centres undefined),8.16
COc1nsc2nc(C3CCCN3C(C)=O)ccc12 (centres undefined),9.432
COc1ccccc1CNC(=O)N1CCCC(c2nncn2C)C1 (centres undefined),4.645
[H][C@@]12C[C@H](C)O[C@]1([H])CCN(C(=O)CCOc1ccccc1)C2,8.505
Cc1nc2cc(OCc3nc(C(=O)NC(C)(CO)CO)co3)ccc2s1,-5.175
Cc1nc(C(=O)N(C)[C@@H]2CCC[C@@H](Oc3ccccc3)[C@@H]2O)co1,5.649
CC(C)c1nc(CN(C)C(=O)c2ccc(CN3CCCCC3)cc2)cs1,-25.69
Cc1nc(CN2CCCN(CCOc3cccc(C#N)c3)CC2)no1,4.482
Cc1cnn(CC(C)NCc2csc(-c3ccsc3)n2)c1 (centres undefined),-29.52 and -38.27 and -10.02
CCc1nc(C(=O)NCc2ccc(N3CCNC(=O)C3)c(F)c2)c[nH]1,1.294
CN(C(=O)c1ccc2c(c1)nc(N1CC[C@H](O)C1)n2C)C1CCSCC1,-1.125
Cc1ccc(-c2noc(CN3CCOC(Cn4cncn4)C3)n2)cc1 (centres undefined),-63.25 and -66.19 and -19.13
COc1ccc(CN2Cc3cn(C)nc3C(COCC3CC3)C2)cc1 (centres undefined),21.21
Cc1nc(C(NC(=O)C2CCCC2)c2ccccc2F)no1 (centres undefined),-23.03
O=c1c2c(ncn1CCCO)nc1n2CCC1,-1.088
Br.COc1ccc(OCCc2cc(C3CCN(CC(C)C)C3)n[nH]2)cc1 (centres undefined),3.04
CN(C)C(=O)CN1CCN(C(=O)c2cnn(-c3ccccc3Cl)c2)CC1,2.561
CC1CC(NS(=O)(=O)c2ccc(C(F)(F)F)nc2)C1 (centres undefined),3.72
CCOc1ccc(CNC(C)c2cccc(S(=O)(=O)NC)c2)cc1 (centres undefined),0.3293
CCOc1ccc(CCCC(=O)N2CC[C@H](NC(C)=O)C2)cc1C,-11.26
COCCN1CCC(CNCc2c[nH]nc2C(C)(C)C)CC1,12.48
COc1ccc(CN2CC(O)CN(C(=O)c3ccccc3)CC2=O)cc1 (centres undefined),22.89
CCCn1ncc(C(=O)NC(C)c2c(C)nn(CC)c2C)c1C (centres undefined),5.116
CC(NC(=O)NCCCN(C)S(C)(=O)=O)c1ccncc1 (centres undefined),-7.876
O=C(CCc1cccc(F)c1F)N1CCN(Cc2ccco2)CC1,-6
Cc1nc(C)c2c(n1)CCN(Cc1nccn1C)CC2.O=C(O)C(F)(F)F,5.063
Cc1nn(C)c(N(C)C)c1CNCc1ccccc1Cn1ccnc1,8.546
O=C(Cc1ccccc1Br)NCC(=O)Nc1cn[nH]c1,10.87
COCC1CC2(CCN(C(=O)c3cccn3C)CC2)CN1C(C)C (centres undefined),-10.15
[H][C@@]12C[C@H](C(=O)N3CCCCO3)CN(C(=O)C3CCOCC3)[C@]1([H])CCO2,-13.1
CC(=O)NCC(=O)N1CCCC(C(=O)c2ccc(C(C)(C)C)cc2)C1 (centres undefined),5.104
CCCc1n[nH]c(C2CN(CCCOc3ccccc3)CCO2)n1 (centres undefined),-15.27
[H][C@@]12CN(C(=O)c3cccn3C)C[C@]1([H])C(=O)N(CC1CC1)C2,8.262
O=C(O)C(F)(F)F.O=C(O)C(F)(F)F.[H][C@@]12C[C@@H](C(=O)NCC3CC3)C[C@@]1([H])N(Cc1cccnc1)CCO2,-4.437
O=C(O)C(F)(F)F.O=C(O)C(F)(F)F.c1cnc(N2CCC3(COCCN(CC4CCOCC4)C3)C2)nc1 (centres undefined),-16.46